According to paper PMC7819943, “Rice protein-binding microarrays: a tool to detect cis-acting elements near promoter regions in rice”:
The other results are listed elsewhere or left out.

Chains of the proteins cited; added tags and fusions are not shown.
UniProt Q0JBA9, entry or part of it: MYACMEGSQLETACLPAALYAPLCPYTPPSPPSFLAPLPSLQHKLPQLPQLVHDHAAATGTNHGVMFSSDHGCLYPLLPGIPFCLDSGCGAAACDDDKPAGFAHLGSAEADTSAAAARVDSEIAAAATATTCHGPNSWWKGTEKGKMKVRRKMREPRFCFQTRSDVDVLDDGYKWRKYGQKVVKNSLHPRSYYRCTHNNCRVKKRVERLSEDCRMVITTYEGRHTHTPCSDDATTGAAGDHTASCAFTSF

What follows are sequences tested against OsWRKY34 (Oryza sativa, UniProt Q0JBA9 1-250) (assay: protein-binding microarray (RPBM); PBS, 2% BSA, 51.3 ng/ul salmon testes DNA, 50 uM zinc acetate, 200 nM TF, 25 C, 1 h; high values mean tight binding). Conditions: protein: recombinant; tags: N-terminal polyhistidine and DsRed monomer fusion (pET32a); label: CyDye5-dUTP incorporated in the synthesized complementary strand; 3' TTTTT single-stranded linker to array surface; dsDNA, one strand shown.
Summary of the method: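 The binding signal is fluorescence intensity per array feature (arbitrary units). Readings came from an Axon 4000B scanner after a washed, 2% BSA-blocked, double-stranded custom Agilent array had been incubated for 1 h at 25 °C with 200 nM protein and 50 µM zinc acetate. The protein was a Ni–NTA-purified transcription factor fused N-terminally to polyhistidine and DsRed, expressed in E. coli BL21-CodonPlus.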

Q: With “ACCTTCGCCTTCCGCTTCCTGCAGCCGCCTCTCTCGCAGACGGAGTCACCTAGTGCAG” as the sequence, how does the binding signal read?
A: 9050 fluorescence intensity (a.u.)

Q: For “GGGTTCTTGCTAAGGTTTGGTGGTCTTTTCTTTCCCTAGACGGAGTCACCTAGTGCAG”, which binding signal is on record?
A: 12400 fluorescence intensity (a.u.)

Q: “CTCTCCTCGCGGTCGCTTCTCGTCTCGTCCCAATCTACTCCGGAGTCACCTAGTGCAG” was tested. Which binding signal did it give?
A: 11700 fluorescence intensity (a.u.)

Q: Which binding signal does the source give for “TTTTCCTGAACGTCACCCCATTTTGTTTCCATGCGGTCCACGGAGTCACCTAGTGCAG” here?
A: 8450 fluorescence intensity (a.u.)

Q: For “GGCTGGGGAAAGTTGGTAGCAACCGAGAAATCGTCCGATCCGGAGTCACCTAGTGCAG”, which binding signal is on record?
A: 8230 fluorescence intensity (a.u.)

Q: Which binding signal does the source give for “CCCTGCATTCCAAAGCACTCACATTCATTGCCTTTTGAGCCGGAGTCACCTAGTGCAG” here?
A: 8630 fluorescence intensity (a.u.)

Q: Which binding signal does the source give for “ATTACCACTGATGCTGCTTGGTTCGCAATACTTGCTTCTTCGGAGTCACCTAGTGCAG” here?
A: 9730 fluorescence intensity (a.u.)

Q: “TGCCTGGTTTTTTGGTCCGTTTGTGGGGCCCGCTTTTGTCCGGAGTCACCTAGTGCAG” was tested. Which binding signal did it give?
A: 9190 fluorescence intensity (a.u.)

Q: For “AATTTTAGCATATTGCAACCCATATTGTATCTGTTTTATTCGGAGTCACCTAGTGCAG”, which binding signal is on record?
A: 9340 fluorescence intensity (a.u.)

Q: How did the binding signal turn out when “ATAACTTAATCACATTTCCACACACACTGTTAACTTGAACCGGAGTCACCTAGTGCAG” was run?
A: 8910 fluorescence intensity (a.u.)

Q: For “TAAGTTCTAAAATTTTCTTTCTTACCTATTTACGATTTTTCGGAGTCACCTAGTGCAG”, which binding signal is on record?
A: 8760 fluorescence intensity (a.u.)

Q: How did the binding signal turn out when “AAAGTTTAAATTGTCAAAATTTTGTCGTATACTGTCCCTACGGAGTCACCTAGTGCAG” was run?
A: 8430 fluorescence intensity (a.u.)

Q: For “ATGCATTTTGTCCCATTTCATATCTGTTCAGCATATTTAGCGGAGTCACCTAGTGCAG”, which binding signal is on record?
A: 12500 fluorescence intensity (a.u.)

Q: With “TGCTGTCGCCGCGCCGTCGTCCTGCCATCGCCATCCTCTCCGGAGTCACCTAGTGCAG” as the sequence, how does the binding signal read?
A: 11800 fluorescence intensity (a.u.)

Q: Which binding signal does the source give for “ATTCAGATTTCTACACCCGTGTTGCTGTGTTCTGTCTTCTCGGAGTCACCTAGTGCAG” here?
A: 8100 fluorescence intensity (a.u.)

Q: With “GGTGGTGCGCGAGCGTCGGCGGTCGGCGGGAGGGCGGGAGCGGAGTCACCTAGTGCAG” as the sequence, how does the binding signal read?
A: 9180 fluorescence intensity (a.u.)

Q: For “CACTTCGCGCCGCCGCCCTCCGCCTCGCCGCCGCCAGAGGCGGAGTCACCTAGTGCAG”, which binding signal is on record?
A: 8140 fluorescence intensity (a.u.)

Q: Which binding signal does the source give for “TCTCCGCTGCTCCGATCCACCGTCTCCGCCGCTGCTTGAACGGAGTCACCTAGTGCAG” here?
A: 9940 fluorescence intensity (a.u.)

Q: How did the binding signal turn out when “GGTTGTATCGTTGGAAGGGATGTCCTTATCATCTTTGATCCGGAGTCACCTAGTGCAG” was run?
A: 10100 fluorescence intensity (a.u.)

Q: Which binding signal does the source give for “CACAACTGCACGTATTGCGTCGCCAATGTCATCGCTAACTCGGAGTCACCTAGTGCAG” here?
A: 8730 fluorescence intensity (a.u.)

Q: Which binding signal does the source give for “TACAGCTCCACTTCTCGAATCCTTGCACCACTAGTCTCTCCGGAGTCACCTAGTGCAG” here?
A: 8100 fluorescence intensity (a.u.)

Q: Which binding signal does the source give for “AAAAACTCATAAAAACATGTGCGATATTTTTCTTTCATTTCGGAGTCACCTAGTGCAG” here?
A: 8380 fluorescence intensity (a.u.)

Q: How did the binding signal turn out when “GAGATCCTAGGTCCAAAAGAAGAGAGGGTCGTGACGGTGCCGGAGTCACCTAGTGCAG” was run?
A: 14700 fluorescence intensity (a.u.)

Q: How did the binding signal turn out when “ACCTTGATTTTGTTGACATAATGTGCGAGGTATTGAGCATCGGAGTCACCTAGTGCAG” was run?
A: 8350 fluorescence intensity (a.u.)

Q: With “TCACATTGCAGCTACATTCCATGCTTCTGCTCAAAGTTTTCGGAGTCACCTAGTGCAG” as the sequence, how does the binding signal read?
A: 9540 fluorescence intensity (a.u.)

Q: Which binding signal does the source give for “ATCTCTCTCATCCAATTCCTGTGTTTTTCCTACGGTCCAACGGAGTCACCTAGTGCAG” here?
A: 8170 fluorescence intensity (a.u.)

Q: For “CCGCCCACCGCCGGGCTGCCGCTTCTCACGGCCATTCCTCCGGAGTCACCTAGTGCAG”, which binding signal is on record?
A: 8650 fluorescence intensity (a.u.)

Q: Which binding signal does the source give for “ATGCTCGCCCGCCGCCGACGTCGCTCTCGCCCGCCGTCGCCGGAGTCACCTAGTGCAG” here?
A: 9060 fluorescence intensity (a.u.)

Q: How did the binding signal turn out when “ATATAAATTAAAGTTGCTTTGACTTTTCTCTTATTCAAATCGGAGTCACCTAGTGCAG” was run?
A: 9550 fluorescence intensity (a.u.)

Q: How did the binding signal turn out when “TTTAAGTTTGGTTTTGGCGTCTTATGTGTAATGTAATCAACGGAGTCACCTAGTGCAG” was run?
A: 8230 fluorescence intensity (a.u.)

Q: For “TTGGTGGACATGACAGGTAAAACAAATTGGGGCGAATTCTCGGAGTCACCTAGTGCAG”, which binding signal is on record?
A: 8070 fluorescence intensity (a.u.)

Q: Which binding signal does the source give for “GTTCTCATCCCTCCCATTTGATTCTAGGCGATTTCTTTTTCGGAGTCACCTAGTGCAG” here?
A: 9070 fluorescence intensity (a.u.)

Q: With “TAAGACCCCGTTTCGTCGTTACTGTATTTTTGGATTTCCTCGGAGTCACCTAGTGCAG” as the sequence, how does the binding signal read?
A: 8330 fluorescence intensity (a.u.)

Q: Which binding signal does the source give for “CCTTCCGTTTCTCCGATCCTCGTGTGGGCGATGAATATATCGGAGTCACCTAGTGCAG” here?
A: 9490 fluorescence intensity (a.u.)

Q: For “TGTTGTGTGTTTGATGCAGGTGAGGCAGGAACTCTTGTAACGGAGTCACCTAGTGCAG”, which binding signal is on record?
A: 9620 fluorescence intensity (a.u.)

Q: “CACGTCGGCATCCGCAGCTTCAACTTTGGCTTCACTATCACGGAGTCACCTAGTGCAG” was tested. Which binding signal did it give?
A: 8430 fluorescence intensity (a.u.)

Q: For “ACTACTTAAGTTTCCCAAACAGGACTAGTTTGACCTACTTCGGAGTCACCTAGTGCAG”, which binding signal is on record?
A: 8640 fluorescence intensity (a.u.)

Q: With “CTCCACCACTCATTGCCCTCACTCTCCTCTCTCTCTCTCTCGGAGTCACCTAGTGCAG” as the sequence, how does the binding signal read?
A: 9150 fluorescence intensity (a.u.)

Q: “GTCTTGAGCGACCAAAGTTGGACTTTCTTCATTACATATTCGGAGTCACCTAGTGCAG” was tested. Which binding signal did it give?
A: 8700 fluorescence intensity (a.u.)

Q: How did the binding signal turn out when “TGGCAACTTCCTTATTTTTCATTACCATATTTCCCAAACTCGGAGTCACCTAGTGCAG” was run?
A: 9390 fluorescence intensity (a.u.)

Q: How did the binding signal turn out when “TTCCCCGACCGTTTCTGCTCGTTTTCGAAAAAAATAATAACGGAGTCACCTAGTGCAG” was run?
A: 8170 fluorescence intensity (a.u.)

Q: Which binding signal does the source give for “AGCTGGCGGCTGGCGGGTGGTGGTGGTGGCTGGCGGCGGGCGGAGTCACCTAGTGCAG” here?
A: 13900 fluorescence intensity (a.u.)
